{"source": "PubChem BioAssay AID1508597 (Cure First, 2020)", "aim": "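Knock-downs altering ovarian cancer cell survival with or without PARP inhibitor rucaparib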 (primary screen)", "cell system": "human ovarian carcinoma lines grown from tumours: OCI-P5x (papillary serous) and OCI-C5x (clear cell)", "knock-down reagent": "siRNA pool against human genes, 1.25 pmol siRNA per well", "duration": "72 h or 96 h, depending on the cell culture", "challenge": "rucaparib 20 µM (about IC30) or vehicle, present until read-out", "rucaparib or vehicle": "Vehicle", "cell line": "OCI-C5x (clear cell)", "measured": "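Luminescent ATP-based viability assay read 72 or 96 h after transfection, depending on culture, given as normalised percent viability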", "reading the numbers": "viability, normalised: higher = more viable cells remaining", "rule for the call": "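Active when normalised viability falls below 80 percent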", "meaning of the calls": "active = viability under 80%; inactive = viability 80% or more", "note": "This is a random part of the about 2,100 reagents, in one setting of the screen. 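Calls flag viability under 80% in either arm, not effects specific to rucaparib; the reference for percent is not stated.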 A reagent listed more than once was tested more than once; the source does not tell the runs apart. No sequences are given here. The record does not give: the 100% reference."}
{"Target gene": "TEK (TEK receptor tyrosine kinase)", "technical replicate": "1", "viability, normalised (%)": 45.7, "Outcome": "active"}
{"Target gene": "TEK (TEK receptor tyrosine kinase)", "technical replicate": "2", "viability, normalised (%)": 57.9, "Outcome": "active"}
{"Target gene": "TEK (TEK receptor tyrosine kinase)", "technical replicate": "3", "viability, normalised (%)": 52.7, "Outcome": "active"}
{"Target gene": "EID2 (EP300 interacting inhibitor of differentiation 2)", "technical replicate": "1", "viability, normalised (%)": 52.4, "Outcome": "active"}
{"Target gene": "EID2 (EP300 interacting inhibitor of differentiation 2)", "technical replicate": "2", "viability, normalised (%)": 56, "Outcome": "active"}
{"Target gene": "EID2 (EP300 interacting inhibitor of differentiation 2)", "technical replicate": "3", "viability, normalised (%)": 43.3, "Outcome": "active"}
{"Target gene": "CECR2 (CECR2 histone acetyl-lysine reader)", "technical replicate": "1", "viability, normalised (%)": 46.9, "Outcome": "active"}
{"Target gene": "CECR2 (CECR2 histone acetyl-lysine reader)", "technical replicate": "1", "viability, normalised (%)": 66.8, "Outcome": "active"}
{"Target gene": "CECR2 (CECR2 histone acetyl-lysine reader)", "technical replicate": "2", "viability, normalised (%)": 53.4, "Outcome": "active"}
{"Target gene": "CECR2 (CECR2 histone acetyl-lysine reader)", "technical replicate": "2", "viability, normalised (%)": 41.3, "Outcome": "active"}
{"Target gene": "CECR2 (CECR2 histone acetyl-lysine reader)", "technical replicate": "3", "viability, normalised (%)": 53, "Outcome": "active"}
{"Target gene": "CECR2 (CECR2 histone acetyl-lysine reader)", "technical replicate": "3", "viability, normalised (%)": 52.4, "Outcome": "active"}
{"Target gene": "RLIM (ring finger protein, LIM domain interacting)", "technical replicate": "1", "viability, normalised (%)": 43.1, "Outcome": "active"}
{"Target gene": "RLIM (ring finger protein, LIM domain interacting)", "technical replicate": "2", "viability, normalised (%)": 52, "Outcome": "active"}
{"Target gene": "RLIM (ring finger protein, LIM domain interacting)", "technical replicate": "3", "viability, normalised (%)": 44.2, "Outcome": "active"}
{"Target gene": "ATR (ATR checkpoint kinase)", "technical replicate": "1", "viability, normalised (%)": 59.5, "Outcome": "active"}
{"Target gene": "ATR (ATR checkpoint kinase)", "technical replicate": "1", "viability, normalised (%)": 72.7, "Outcome": "active"}
{"Target gene": "ATR (ATR checkpoint kinase)", "technical replicate": "2", "viability, normalised (%)": 54, "Outcome": "active"}
{"Target gene": "ATR (ATR checkpoint kinase)", "technical replicate": "2", "viability, normalised (%)": 50.2, "Outcome": "active"}
{"Target gene": "ATR (ATR checkpoint kinase)", "technical replicate": "3", "viability, normalised (%)": 58.3, "Outcome": "active"}
{"Target gene": "ATR (ATR checkpoint kinase)", "technical replicate": "3", "viability, normalised (%)": 60.2, "Outcome": "active"}

Continued; the last 3 above are carried over.
{"Target gene": "ATR (ATR checkpoint kinase)", "technical replicate": "2", "viability, normalised (%)": 50.2, "Outcome": "active"}
{"Target gene": "ATR (ATR checkpoint kinase)", "technical replicate": "3", "viability, normalised (%)": 58.3, "Outcome": "active"}
{"Target gene": "ATR (ATR checkpoint kinase)", "technical replicate": "3", "viability, normalised (%)": 60.2, "Outcome": "active"}
{"Target gene": "SLC2A9", "technical replicate": "1", "viability, normalised (%)": 30.2, "Outcome": "active"}
{"Target gene": "SLC2A9", "technical replicate": "2", "viability, normalised (%)": 37.6, "Outcome": "active"}
{"Target gene": "SLC2A9", "technical replicate": "3", "viability, normalised (%)": 36.1, "Outcome": "active"}
{"Target gene": "CLDN1 (claudin 1)", "technical replicate": "1", "viability, normalised (%)": 49.9, "Outcome": "active"}
{"Target gene": "CLDN1 (claudin 1)", "technical replicate": "2", "viability, normalised (%)": 59, "Outcome": "active"}
{"Target gene": "CLDN1 (claudin 1)", "technical replicate": "3", "viability, normalised (%)": 41.1, "Outcome": "active"}
{"Target gene": "UCHL5 (ubiquitin C-terminal hydrolase L5)", "technical replicate": "1", "viability, normalised (%)": 73.2, "Outcome": "active"}
{"Target gene": "UCHL5 (ubiquitin C-terminal hydrolase L5)", "technical replicate": "2", "viability, normalised (%)": 77.3, "Outcome": "active"}
{"Target gene": "UCHL5 (ubiquitin C-terminal hydrolase L5)", "technical replicate": "3", "viability, normalised (%)": 65.6, "Outcome": "active"}
{"Target gene": "NQO2 (N-ribosyldihydronicotinamide:quinone dehydrogenase 2)", "technical replicate": "1", "viability, normalised (%)": 69.5, "Outcome": "active"}
{"Target gene": "NQO2 (N-ribosyldihydronicotinamide:quinone dehydrogenase 2)", "technical replicate": "2", "viability, normalised (%)": 67.4, "Outcome": "active"}
{"Target gene": "NQO2 (N-ribosyldihydronicotinamide:quinone dehydrogenase 2)", "technical replicate": "3", "viability, normalised (%)": 55.6, "Outcome": "active"}
